Two molecules from PMC4154645 can be followed below.

Chains of the proteins cited; added tags and fusions are not shown.
UniProt P63280: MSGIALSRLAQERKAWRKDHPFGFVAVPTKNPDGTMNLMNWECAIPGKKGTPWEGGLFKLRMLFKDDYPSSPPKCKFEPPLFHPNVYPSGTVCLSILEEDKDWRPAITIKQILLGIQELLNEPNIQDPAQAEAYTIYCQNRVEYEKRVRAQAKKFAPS
UniProt Q61313: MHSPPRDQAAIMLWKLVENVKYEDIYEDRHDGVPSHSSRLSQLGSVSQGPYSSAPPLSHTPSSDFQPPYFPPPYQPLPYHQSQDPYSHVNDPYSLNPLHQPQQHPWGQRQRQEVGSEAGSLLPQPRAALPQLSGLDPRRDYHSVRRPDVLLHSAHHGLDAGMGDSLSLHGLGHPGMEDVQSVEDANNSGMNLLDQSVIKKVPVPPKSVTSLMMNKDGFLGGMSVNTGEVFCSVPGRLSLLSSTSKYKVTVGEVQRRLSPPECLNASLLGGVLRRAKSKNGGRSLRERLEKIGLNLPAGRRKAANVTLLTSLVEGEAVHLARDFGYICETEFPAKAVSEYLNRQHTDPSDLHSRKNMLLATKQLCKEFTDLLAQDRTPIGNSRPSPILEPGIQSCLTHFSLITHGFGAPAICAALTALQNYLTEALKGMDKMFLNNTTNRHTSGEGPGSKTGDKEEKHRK

Assay in all cases: proximity ligation; in situ PLA (Duolink II fluorescence kit, orange detection reagents) on mHypoE-N25/2 cells fixed in 4% paraformaldehyde; endogenous proteins detected with pairs of primary antibodies; negative controls without primary antibodies
The target in one assay is T1, Kctd15 (mouse) (UniProt Q8K0E1).
T1 sequence: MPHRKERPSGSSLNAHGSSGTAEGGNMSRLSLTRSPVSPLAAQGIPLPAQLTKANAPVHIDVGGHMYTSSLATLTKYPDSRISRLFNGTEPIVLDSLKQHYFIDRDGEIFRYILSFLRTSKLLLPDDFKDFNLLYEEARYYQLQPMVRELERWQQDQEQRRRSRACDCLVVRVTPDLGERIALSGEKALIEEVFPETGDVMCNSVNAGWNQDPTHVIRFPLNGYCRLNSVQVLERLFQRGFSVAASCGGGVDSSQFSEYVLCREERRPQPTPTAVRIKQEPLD

Assay [1] deals with Ube2i (mouse) (UniProt P63280).
For assay [2], the target named is Ube2i (mouse) (UniProt P63280). This is another data set of the same source.

Like-named read-outs stand apart in the source and are kept apart here. No constants are given. Whether binding was seen depends on the method and setting. In cells and extracts the contact can be indirect. Some results given as binding are weak or reduced against the parent protein; the word gives no strength.

On to AP-2β (from UniProt Q61313 1-459), for which the binding result with Kctd15 (mouse) and in the assay with Ube2i (mouse) [1] was “binds” each time.

B1: Kctd15 (protein, UniProt Q8K0E1 1-283)
chain: T1 sequence
For the molecule B1, the binding result with Ube2i (mouse) [2] is “binds”.
